From PubChem BioAssay AID2685 (National Center for Advancing Translational Sciences (NCATS), 2010)
The other results are listed elsewhere or left out. The main result of the screen is listed elsewhere. These columns were measured beside it and carry no call. Most of these compounds were active or inconclusive in the main read-out, so they are no random draw. The note in brackets gives the kind of curve behind each potency; many fits are weak.

Test: qHTS Assay for Lipid Storage Modulators in Drosophila S3 Cells;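 on cell number change: cells counted by Cell Tracker Red CMTPX staining in the red channel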
Conditions: BODIPY lipid droplet fluorescence, 18-24 h; for cell number change: measured here: cell count max response, cells fed with added oleic acid
Procedure, shortened: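 Drosophila S3 cells got compounds at several concentrations plus oleic acid (400 uM solution). Laser-scanning cytometry with 488 nm excitation read lipid droplets at 500-530 nm and cells at 575-640 nm. Percent activity was relative to 20 uM Triacsin C.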

[1] = measured here: lipid fluorescence (Fed channel) AC50, cells fed with added oleic acid
[2] = measured here: cell number channel AC50, cells fed with added oleic acid

Compound: CNC(=O)c1nc(C)n(-c2ccc([N+](=O)[O-])cc2)n1
- cell number change: -43%
- AC50 [1]: 4.11 µM [falling, full curve]

Compound: CCC(=O)N(c1nnc(SCC(=O)Nc2ccc(N3CCOCC3)cc2)s1)C1CC1
- cell number change: 10.5%
- AC50 [1]: 0.291 µM [rising, full curve, poor fit]

Compound: COc1ccc(C2C(C#N)=C(N)Oc3cc4c(cc32)OCO4)cc1 (configuration not stated)
- cell number change: 205%
- AC50 [2]: 3.66 µM [rising, full curve]
- AC50 [1]: 2.06 µM [rising, partial curve]

Compound: O=C(c1ccsc1)N1CCCC(Nc2cccc(F)c2)C1 (configuration not stated)
- cell number change: 30.2%
- AC50 [2]: 22.4 µM [rising, single point]

Compound: O=C(NNC(=O)c1csc(N2CCOCC2)n1)c1ccc(=O)[nH]c1
- cell number change: -5.31%
- AC50 [1]: 8.2 µM [rising, partial curve]

Compound: CCc1cc(=O)oc2c(C)c(OCC(=O)NCCN3CCOCC3)ccc12
- cell number change: 4.18%
- AC50 [1]: 20.6 µM [rising, single point]

Compound: CC1CCCCC12NC(=O)N(CC(=O)N1CCN(S(=O)(=O)c3cccs3)CC1)C2=O (configuration not stated)
- cell number change: 1.2%

Compound: COc1ccc(C(=O)c2sc3nc(-c4ccccc4)ccc3c2N)cc1
- cell number change: 0.485%
- AC50 [1]: 2.06 µM [rising, partial curve]

Compound: O=C(NCC1OCCc2ccccc21)c1cc(COc2ccc(F)cc2Cl)on1 (configuration not stated)
- cell number change: -23.4%
- AC50 [1]: 18.4 µM [falling, single point]

Compound: O=C(CC(c1ccccc1)c1cc(Cl)ccc1O)N1CCOCC1 (configuration not stated)
- cell number change: -132%
- AC50 [2]: 20.6 µM [falling, single point]

Compound: COc1ccc(C(=O)N2CCCC(c3ccccc3)=N2)cc1
- cell number change: 39.4%
- AC50 [2]: 6.51 µM [rising, partial curve]
- AC50 [1]: 29.1 µM [rising, single point]

Compound: COCCN(C(=O)Nc1ccc(OC)cc1OC)C1CCN(C(C)=O)CC1
- cell number change: -27.3%
- AC50 [1]: 29.1 µM [falling, partial curve]

Compound: COc1cc(C=C2C(=O)OC(C)(C)OC2=O)ccc1OCC(=O)Nc1ccccc1
- cell number change: 13.2%
- AC50 [1]: 0.13 µM [rising, full curve, poor fit]

Compound: Cc1ccc(O)c(CC(C)C)n1
- cell number change: -2.26%
- AC50 [1]: 2.59 µM [falling, single point]

Compound: CC(C)(C)c1ccc(C(=O)Nn2cnnc2)cc1
- cell number change: 0.549%

Compound: CC(C)C(C(=O)O)N1C(=O)/C(=C/c2cccn2C)SC1=S (configuration not stated)
- cell number change: 30.7%
- AC50 [2]: 0.092 µM [rising, full curve, poor fit]

Compound: CCN(CC)c1ncnc2c1cnn2C
- cell number change: -6.35%
- AC50 [1]: 10.3 µM [falling, partial curve, poor fit]

Compound: CC(C)CCNC(=O)C1CCC(CNS(=O)(=O)c2cccc3nsnc23)CC1 (configuration not stated)
- cell number change: -34.4%
- AC50 [2]: 29.1 µM [falling, single point]

Compound: Cc1ccccc1OCC(=O)N1N=C(c2cccnc2)CC1(O)C(F)(F)F (configuration not stated)
- cell number change: -3.83%
- AC50 [1]: 2.06 µM [rising, partial curve]

Compound: COc1cccc(NC(=O)CSc2ncnc3c2cnn3Cc2ccccc2)c1
- cell number change: 23.5%
- AC50 [2]: 0.92 µM [rising, partial curve, poor fit]
- AC50 [1]: 0.82 µM [rising, single point]

Compound: CCOC(=O)NC(=O)/C(C#N)=C\c1ccccc1
- AC50 [1]: 0.58 µM [rising, single point]

Compound: COc1ccc2c(Cl)c(C(=O)N/N=C/c3ccc4c(c3)OCO4)sc2c1
- cell number change: -15.9%
- AC50 [1]: 0.0651 µM [falling, partial curve, poor fit]

Compound: O=C(NCc1ccco1)C1CCC(N2C(=O)C3C4CCC(C4)C3C2=O)CC1 (configuration not stated)
- cell number change: 115%
- AC50 [2]: 10.3 µM [rising, partial curve]
- AC50 [1]: 18.4 µM [rising, partial curve]

Compound: O=C(CSc1nnc(CNC(=O)c2cccs2)o1)NC1CCCCC1
- cell number change: -17.9%
- AC50 [2]: 0.146 µM [falling, full curve, poor fit]

Compound: Cc1ccc(S(=O)(=O)N(C)CC(=O)Nc2cccc3c2CCCC3)cc1
- cell number change: -46.4%
- AC50 [2]: 5.8 µM [falling, full curve, poor fit]

Compound: CCN(CC)S(=O)(=O)c1ccc(NC(=O)CSc2cccc[n+]2[O-])cc1
- cell number change: 29.4%

Compound: Cc1cc(NC(=O)CSc2nc(C(C)C)nc3c2c(=O)n(C)c(=O)n3C)no1
- AC50 [2]: 0.058 µM [rising, full curve, poor fit]
- AC50 [1]: 0.0651 µM [rising, full curve, poor fit]

Compound: COC(=O)Nc1ccc(S(=O)(=O)NNC(=O)c2c(O)c3ccccc3n(C)c2=O)cc1
- cell number change: 32.8%
- AC50 [2]: 5.8 µM [rising, partial curve, poor fit]

Compound: CC(=O)Nc1cccc(NC(=O)CSc2nnc(NC(=O)c3ccco3)s2)c1
- cell number change: 20.8%

Compound: CN(C)c1ccc(/C=N/N(CCO)C2=NS(=O)(=O)c3ccccc32)cc1
- cell number change: -84.4%
- AC50 [2]: 29.1 µM [falling, single point]
- AC50 [1]: 0.82 µM [falling, single point]

Compound: COc1ccc(C)cc1S(=O)(=O)Nc1ccccc1
- AC50 [2]: 3.66 µM [rising, single point]

Compound: CCCCNC(=O)OC(C)CNC(=O)OC (configuration not stated)
- cell number change: -33.8%
- AC50 [2]: 1.03 µM [falling, full curve, poor fit]

Compound: O=C(CSc1ncccn1)c1ccccc1Br
- AC50 [1]: 6.51 µM [rising, single point]

Compound: CCCN(C(=O)CSc1nnnn1-c1ccccc1OC)C1CCS(=O)(=O)C1 (configuration not stated)
- cell number change: -23.3%
- AC50 [1]: 10 µM [falling, partial curve, poor fit]

Compound: COc1ccc(S(=O)(=O)N2CCOC2CNC(=O)C(=O)NCCN2CCOCC2)cc1 (configuration not stated)
- cell number change: -4.17%
- AC50 [2]: 0.058 µM [falling, full curve, poor fit]
- AC50 [1]: 6.51 µM [falling, single point]

Compound: C=CCNC(=O)COC(=O)COc1ccc(Cl)cc1
- cell number change: -47.5%
- AC50 [2]: 29.1 µM [falling, single point]
- AC50 [1]: 32.6 µM [falling, partial curve, poor fit]

Compound: CCOc1ccc(S(=O)(=O)n2nc(C)cc2C)c2ccccc12
- AC50 [1]: 2.59 µM [rising, partial curve]

Compound: Cn1nc(Oc2nc(N3CCOCC3)nc(N3CCOCC3)n2)ccc1=O
- cell number change: -14%
- AC50 [2]: 0.92 µM [falling, full curve, poor fit]
- AC50 [1]: 1.16 µM [falling, partial curve]

Compound: O=C(O)c1cc(S(=O)(=O)O)ccc1O
- cell number change: -50.5%
- AC50 [2]: 23.1 µM [falling, single point]
- AC50 [1]: 29.1 µM [falling, single point]

Compound: O=C(NNC(=O)c1ccc(F)cc1F)c1ccc2c(c1)OCO2
- AC50 [1]: 0.731 µM [falling, single point]

Compound: Cc1cc(NS(=O)(=O)c2ccc(NC(=O)CSc3nnc(-c4ccco4)n3Cc3ccco3)cc2)nc(C)n1
- cell number change: -66.7%
- AC50 [2]: 29.1 µM [falling, single point]
- AC50 [1]: 1.84 µM [falling, partial curve, poor fit]

Compound: CCOc1ccc(S(=O)(=O)N2CCCCCC2)cc1
- cell number change: 78.4%
- AC50 [2]: 23.1 µM [rising, single point]

Compound: CCOC(=O)c1ccccc1NS(=O)(=O)c1ccc(OCC)cc1
- AC50 [2]: 4.61 µM [rising, single point]
- AC50 [1]: 6.51 µM [rising, single point]

Compound: O=C(c1ccco1)N1CCN(C(=O)c2ccc(CS(=O)c3cccc(Cl)c3)o2)CC1 (configuration not stated)
- cell number change: -17.4%
- AC50 [1]: 29.1 µM [rising, single point]

Compound: COc1cccc(-c2nc(CSCC(=O)NCC3CCCO3)c(C)o2)c1 (configuration not stated)
- cell number change: 13.1%
- AC50 [1]: 14.6 µM [rising, single point]

Compound: CCOc1cc2[nH]c(=O)n(CCCCC(=O)NCc3ccco3)c(=O)c2cc1OCC
- cell number change: -24.5%
- AC50 [1]: 9.2 µM [falling, partial curve]

Compound: O=C1NCC(O)=C1C=NCCCO
- cell number change: 0.752%
- AC50 [1]: 4.61 µM [falling, partial curve]

Compound: Oc1cc2c(cc1CN1CCN(c3ncccn3)CC1)OCO2
- cell number change: -6.65%

Compound: COC(=O)Cc1csc(Nc2ccccc2)n1
- cell number change: 6.59%

Compound: c1ccc2c(c1)nc(Nc1ccc(N3CCCCC3)cc1)c1nncn12
- cell number change: -45.6%
- AC50 [2]: 32.6 µM [falling, single point]
- AC50 [1]: 29.1 µM [falling, single point]

Compound: COc1cccc(NC(=O)CSc2nnc(-c3cc(-c4ccccn4)nc4ccccc34)o2)c1
- AC50 [2]: 0.58 µM [rising, single point]
- AC50 [1]: 29.1 µM [falling, single point]

Compound: Cc1ccc(SCCC(=O)Nc2c(C)n(C)n(-c3ccccc3)c2=O)cc1
- AC50 [1]: 0.092 µM [falling, full curve, poor fit]

Compound: COc1ccc(Nc2nc(C)cc(C)c2C(N)=O)cc1OC
- cell number change: 17.5%
- AC50 [2]: 2.31 µM [rising, partial curve, poor fit]
- AC50 [1]: 0.58 µM [rising, single point]

Compound: S=C(NCc1ccccc1)NNc1nc2ccccc2[nH]1
- cell number change: -35.8%

Compound: N#Cc1c(Cl)c(Cl)c2nnc(-c3ccc(Br)cc3)n2c1Cl
- cell number change: 17.8%
- AC50 [1]: 0.651 µM [rising, full curve, poor fit]

Compound: CC1=C(C(=O)Nc2cc(C(=O)NCCC(C)C)ccc2C)SCCO1
- cell number change: 32.4%

Compound: COc1cc(C(=O)NCCNc2nc3cc(C)ccc3cc2C#N)cc(OC)c1OC
- cell number change: -19.9%
- AC50 [1]: 20.6 µM [falling, single point]

Compound: COC(=O)c1sccc1NC(=S)N1CCN(c2cccc(C)c2C)CC1
- cell number change: 40.2%
- AC50 [2]: 5.8 µM [rising, partial curve, poor fit]
- AC50 [1]: 0.461 µM [rising, partial curve]

Compound: Cc1nc(NC(=O)c2ccc(Br)o2)ccc1Br
- cell number change: 3.31%
- AC50 [1]: 29.1 µM [rising, partial curve]
